Experimental data: PubChem BioAssay AID504786 (Drosophila RNAi Screening Center, 2011)

Screen: 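Fly genes required for HIF-dependent transcription when hypoxia is mimicked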 (primary screen)
Cell system: Drosophila S2 cells with a stable HIF luciferase reporter
Reagent: long dsRNA against Drosophila genes, about 0.2 µg dsRNA per well of a 384-well plate
Duration: three days of knock-down, then 20 h of DFO before reading
Treatment: desferrioxamine (DFO) at 100 µM, an iron chelator that mimics hypoxia, for 20 h
Measured: 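Firefly luciferase driven by the mouse ldh-a hypoxia-response element, measured after 20 h of 100 µM DFO; z-scores per plate, higher means more signal lost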
Scale: z-score: higher = stronger loss of HIF reporter signal
The deposit covers about 21,000 reagents; shown is an unselected part of those with a known target gene and a result. 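Primary screen; positive scores mean lost reporter signal, so the sign may be inverted from the usual convention.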 Reagents against one gene are numbered here. A plus sign joins genes that one reagent is predicted to hit. No sequences are given here.

gene,reagent no.,"z-score, replicate 1","z-score, replicate 2","z-score, replicate 3","z-score, replicate 4"
mGluR,1,-0.3,-0.5,,
Mvd,1,-0.2,-0.2,,
mRpS18B,1,0.3,0.6,,
Ac3,1,-0.2,-0.4,,
drk,1,0.1,0.9,,
Spp,1,-0.4,-0.5,,
Ranbp21,1,1.4,1.6,,
Lsp2,1,-0.4,1,,
Lsp2,2,-0.3,-0.3,,
CG10343,1,-0.2,0,,
polo,1,-0.3,-0.5,-0.9,-0.2
dy,1,-0.2,0.1,,
Rpn7,1,7.6,5.5,,
CG30413,1,-0.2,-0.3,,
CG42824 + CG42823,1,-0.3,-0.2,,
Ets21C,1,0,-0.4,,
Ssk,1,-0.3,-0.5,,
CG11123,1,-0.2,-0.4,,
neur,1,-0.4,-0.7,,
CG42717,1,0,-0.1,,
su(Hw),1,-0.4,-0.8,,
CG14212,1,-0.2,-0.3,,
CG7988,1,0.1,0,,
Cyp308a1,1,-0.7,-0.1,,
GATAe,1,-0.4,0.4,,
Cpr62Bc,1,-0.4,-0.5,,
scb,1,0,-0.1,,
scb,2,-0.2,-0.3,,
AOX1,1,0.2,1.4,,
Sin1,1,-0.3,0.1,,
CR18275 + CG13373,1,-0.3,1.3,,
CG5071,1,-0.2,0.2,,
CG10562,1,-0.3,0.2,,
CG14042 + SP555,1,-0.3,0,,
CG14042 + SP555,2,-0.3,-0.7,,
CG8086,1,-0.2,-0.2,,
CG8086,2,-0.3,-0.1,,
CG9109,1,0.1,-0.1,,
VGlut,1,-0.3,0,-0.7,-0.3
Dad,1,-0.2,-0.4,,
Sema2b,1,-0.9,-0.4,,
Sema2b,2,-0.7,-0.2,,
Sema2b,3,-0.2,-0.7,,
l(2)k01209,1,0.1,0,,
scrt,1,1.7,1.8,,
Amacr,1,-0.3,-0.3,,
CG15345 (retired record),1,-0.3,-0.6,1,0
CG32647,1,-0.2,-0.2,,
CG32647,2,0.4,1.1,,
CG31650,1,-0.3,-0.5,,
POLDIP2,1,-0.3,-0.4,,
Nepl15,1,-0.2,-0.1,,
CG16727,1,-0.7,-0.5,,
CG14297,1,-0.1,0.8,,
Tsp42Ed,1,-0.3,0.1,,
Eig71Ea,1,-0.2,-0.6,,
CG7387,1,-0.3,-0.5,,
bma,1,-0.3,0.7,,
bma,2,-0.3,-0.3,,
Prosalpha3T,1,-0.4,-0.1,,
ara,1,3,1.2,,
CG14207,1,-0.3,-0.2,,
CG14207,2,-0.3,-0.6,,
AttA,1,-0.2,-0.1,,
CCDC151,1,-0.3,-0.3,,
CG14277,1,-0.3,-0.5,,
esc,1,-0.3,-0.2,,
SelR,1,-0.4,-0.8,,
mtDNA-helicase,1,-0.2,-0.3,,
CG18213,1,-0.3,-0.2,,
bys,1,0,1.2,,
Caf1-105,1,-0.4,-0.4,,
CG32668,1,-0.2,0,,
CG6041,1,-0.3,-0.5,,
CG13436,1,-0.3,-0.6,,
CG10576,1,-0.4,-0.2,,
CG6830,1,-0.3,-0.1,,
CG8306,1,-0.3,-0.2,,
IleRS-m,1,0,-0.1,,
CG12608,1,-0.2,-0.3,,
Ets65A,1,-0.1,0.1,,
Ets65A,2,0,0.5,,
Ets65A,3,-0.1,0.1,,
Ppt1,1,-0.3,-0.2,,
Dcp-1,1,-0.3,-0.1,,
CG13857,1,-0.7,-0.2,,
l(3)72Dr,1,-0.3,-0.4,,
Ssdp,1,-0.8,-0.7,,
CG11755,1,-0.3,-0.2,,
Pgk,1,-0.4,-0.9,,
pkaap,1,0,-0.2,,
Nulp1,1,-0.2,-0.3,,
Rab7,1,-0.2,-0.5,,
CG32816,1,-0.1,-0.5,,
CG18605,1,-0.2,0.3,,
CG34150,1,-0.3,-0.3,,
CG13743,1,-0.1,-0.8,-0.2,0.2
CG13743,2,0.1,0.4,,
CG9451,1,-0.1,-0.3,,
Sgs5,1,-0.2,-0.4,,
CG10713,1,-0.5,-0.9,,
Ttd14,1,-0.3,-0.7,,
Ttd14,2,-0.4,-0.3,,
CG9459,1,-0.3,-0.6,,
Hr78,1,-0.3,0,,
TBC1D23,1,0.1,-0.3,,
